These are yes or no findings as the source states them, for the method shown. In cells and extracts the contact can be indirect. Some binding calls cover weakened binding; strength is not graded here.
Tests used:
[1] = target: GFP-tagged LRRK1 (UniProt Q38SD2); experiment: co-IP
[2] = target: GFP-tagged VARP (UniProt Q96NW4); experiment: co-IP

By UniProt entry, the sequences of proteins in these tests, tags left out.
UniProt Q38SD2: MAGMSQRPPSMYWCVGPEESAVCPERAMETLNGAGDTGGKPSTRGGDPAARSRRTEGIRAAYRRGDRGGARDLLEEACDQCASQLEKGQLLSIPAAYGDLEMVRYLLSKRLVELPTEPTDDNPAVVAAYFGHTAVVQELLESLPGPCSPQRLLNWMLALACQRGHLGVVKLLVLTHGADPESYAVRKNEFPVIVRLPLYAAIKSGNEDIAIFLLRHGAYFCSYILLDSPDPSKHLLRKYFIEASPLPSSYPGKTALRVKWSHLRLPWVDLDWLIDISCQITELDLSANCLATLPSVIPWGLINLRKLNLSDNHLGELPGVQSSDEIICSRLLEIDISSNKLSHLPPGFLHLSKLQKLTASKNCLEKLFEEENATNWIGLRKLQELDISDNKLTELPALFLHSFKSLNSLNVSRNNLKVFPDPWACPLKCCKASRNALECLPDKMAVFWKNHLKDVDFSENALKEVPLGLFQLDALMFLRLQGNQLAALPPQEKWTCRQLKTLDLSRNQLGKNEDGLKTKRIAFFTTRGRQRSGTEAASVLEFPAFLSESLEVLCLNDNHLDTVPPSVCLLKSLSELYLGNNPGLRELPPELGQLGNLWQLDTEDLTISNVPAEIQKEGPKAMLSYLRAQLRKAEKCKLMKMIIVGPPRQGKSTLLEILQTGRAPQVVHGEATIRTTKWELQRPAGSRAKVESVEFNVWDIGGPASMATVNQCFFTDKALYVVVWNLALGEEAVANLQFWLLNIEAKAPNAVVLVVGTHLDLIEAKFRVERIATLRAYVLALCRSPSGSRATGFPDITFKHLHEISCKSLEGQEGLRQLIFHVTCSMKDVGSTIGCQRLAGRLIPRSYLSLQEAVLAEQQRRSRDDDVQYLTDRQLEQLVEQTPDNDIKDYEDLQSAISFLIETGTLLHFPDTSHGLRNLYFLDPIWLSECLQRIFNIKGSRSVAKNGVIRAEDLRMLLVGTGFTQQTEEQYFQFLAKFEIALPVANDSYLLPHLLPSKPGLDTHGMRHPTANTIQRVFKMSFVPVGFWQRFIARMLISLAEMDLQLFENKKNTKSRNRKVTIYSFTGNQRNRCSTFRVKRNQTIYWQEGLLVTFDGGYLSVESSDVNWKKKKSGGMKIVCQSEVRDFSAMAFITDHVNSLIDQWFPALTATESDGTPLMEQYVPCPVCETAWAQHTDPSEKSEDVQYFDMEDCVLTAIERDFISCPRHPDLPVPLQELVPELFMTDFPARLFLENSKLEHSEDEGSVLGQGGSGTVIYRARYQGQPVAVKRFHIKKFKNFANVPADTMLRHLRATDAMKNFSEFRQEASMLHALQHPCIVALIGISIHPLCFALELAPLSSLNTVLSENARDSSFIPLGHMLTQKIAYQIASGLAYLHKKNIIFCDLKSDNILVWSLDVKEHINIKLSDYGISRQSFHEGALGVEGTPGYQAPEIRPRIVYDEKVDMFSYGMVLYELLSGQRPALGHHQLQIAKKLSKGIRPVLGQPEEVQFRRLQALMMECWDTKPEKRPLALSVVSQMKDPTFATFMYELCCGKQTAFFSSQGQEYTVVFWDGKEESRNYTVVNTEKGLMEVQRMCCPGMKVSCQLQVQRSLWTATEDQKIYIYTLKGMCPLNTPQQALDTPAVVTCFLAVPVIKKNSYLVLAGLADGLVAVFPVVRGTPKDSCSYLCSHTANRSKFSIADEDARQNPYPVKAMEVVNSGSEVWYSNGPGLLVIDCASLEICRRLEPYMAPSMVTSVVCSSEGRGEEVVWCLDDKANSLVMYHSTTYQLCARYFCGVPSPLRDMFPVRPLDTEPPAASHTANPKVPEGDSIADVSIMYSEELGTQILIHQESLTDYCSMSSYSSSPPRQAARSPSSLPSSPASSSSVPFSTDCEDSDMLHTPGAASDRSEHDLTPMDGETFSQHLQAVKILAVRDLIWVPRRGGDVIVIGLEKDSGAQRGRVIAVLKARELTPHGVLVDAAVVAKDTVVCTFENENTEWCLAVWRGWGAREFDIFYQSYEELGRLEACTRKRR
UniProt Q96NW4: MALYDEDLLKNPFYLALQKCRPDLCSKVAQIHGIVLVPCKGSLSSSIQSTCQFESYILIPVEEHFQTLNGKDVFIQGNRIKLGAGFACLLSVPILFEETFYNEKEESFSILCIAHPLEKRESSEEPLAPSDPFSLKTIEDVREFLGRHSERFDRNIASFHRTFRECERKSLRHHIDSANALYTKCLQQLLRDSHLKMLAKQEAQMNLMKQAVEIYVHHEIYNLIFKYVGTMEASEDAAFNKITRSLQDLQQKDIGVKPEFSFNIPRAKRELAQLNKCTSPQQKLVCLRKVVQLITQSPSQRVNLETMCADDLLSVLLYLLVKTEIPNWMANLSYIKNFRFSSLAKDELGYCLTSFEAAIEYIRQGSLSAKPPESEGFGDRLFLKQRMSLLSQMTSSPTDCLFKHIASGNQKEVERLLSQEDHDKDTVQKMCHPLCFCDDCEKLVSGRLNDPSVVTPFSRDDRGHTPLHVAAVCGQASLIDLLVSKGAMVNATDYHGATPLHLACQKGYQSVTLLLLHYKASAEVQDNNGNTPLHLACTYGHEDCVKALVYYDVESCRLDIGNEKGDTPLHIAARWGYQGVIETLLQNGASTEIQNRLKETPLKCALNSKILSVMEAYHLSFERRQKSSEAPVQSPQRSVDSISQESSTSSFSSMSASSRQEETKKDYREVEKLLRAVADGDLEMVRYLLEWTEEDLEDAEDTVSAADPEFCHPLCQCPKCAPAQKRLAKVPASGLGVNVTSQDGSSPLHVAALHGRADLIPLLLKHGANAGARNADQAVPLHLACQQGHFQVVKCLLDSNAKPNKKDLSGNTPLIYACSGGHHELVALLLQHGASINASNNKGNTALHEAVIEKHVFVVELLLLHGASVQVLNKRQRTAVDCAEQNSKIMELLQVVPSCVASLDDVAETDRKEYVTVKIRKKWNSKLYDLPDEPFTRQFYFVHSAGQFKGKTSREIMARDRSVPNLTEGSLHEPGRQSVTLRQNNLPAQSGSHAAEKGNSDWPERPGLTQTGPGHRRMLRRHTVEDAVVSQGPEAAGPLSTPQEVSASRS
UniProt Q9JHW5: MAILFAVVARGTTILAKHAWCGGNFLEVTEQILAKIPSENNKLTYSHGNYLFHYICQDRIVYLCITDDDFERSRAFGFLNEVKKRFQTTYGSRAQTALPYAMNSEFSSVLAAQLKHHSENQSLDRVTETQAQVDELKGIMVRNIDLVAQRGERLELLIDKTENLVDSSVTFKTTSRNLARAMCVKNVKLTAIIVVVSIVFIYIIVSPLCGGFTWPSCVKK

- binding [1]: binds
- binding [2]: binds
Substance: RFP-tagged full length VAMP7 (from UniProt Q9JHW5 1-220)
